PubChem BioAssay AID743121 | NCATS | 2013
Here is an unselected part of about 26,000 deposited reagents. In the full data, 167 (0.63%) got an active call. 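Calls are per gene from RSA p-values that are not deposited; an individual active-marked siRNA can sensitise only weakly.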 The numbers tell different reagents against one gene apart. Not all columns of the deposit are shown. Reagent sequences are not shown.

Screen: 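Partners whose loss is lethal together with topoisomerase I blockade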 (primary screen)
Cells: MDA-MB-231 cells, a human breast cancer line
Knock-down reagent: single siRNA against human genes, 20 nM siRNA (0.8 pmol per well)
Timing: 120 h (drug added 48 h after transfection, read 72 h later)
Conditions: camptothecin 20 nM (about EC30) for 72 h; vehicle 0.1% DMSO in parallel plates
Measurement: 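CellTiter-Glo ATP signal, scaled to control siRNA as percent viability; sensitisation given as log2 of untreated divided by camptothecin-treated viability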
Reading the numbers: log2 vehicle/camptothecin viability: higher = stronger sensitisation to camptothecin; viability with camptothecin: higher = more viable cells
Units: viability with camptothecin in % of control
Rule for the call: 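Active genes have an RSA gene-level p-value below 0.001, computed from the ratios of their separate siRNAs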

PTMA (GeneID 5757) #1
- log2 vehicle/camptothecin viability: -0.258
- viability with camptothecin: 104
- Call: inactive

PTMA (GeneID 5757) #2
- log2 vehicle/camptothecin viability: 0.0998
- viability with camptothecin: 51.1
- Call: inactive

PTMA (GeneID 5757) #3
- log2 vehicle/camptothecin viability: -0.024
- viability with camptothecin: 78.7
- Call: inactive

PTMA (GeneID 5757) #4
- log2 vehicle/camptothecin viability: -0.188
- viability with camptothecin: 57.3
- Call: inactive

SIM2 (GeneID 6493) #1
- log2 vehicle/camptothecin viability: -0.0673
- viability with camptothecin: 85.9
- Call: inactive

SIM2 (GeneID 6493) #2
- log2 vehicle/camptothecin viability: -0.275
- viability with camptothecin: 63.7
- Call: inactive

SIM2 (GeneID 6493) #3
- log2 vehicle/camptothecin viability: 0.105
- viability with camptothecin: 78.6
- Call: inactive

SIM2 (GeneID 6493) #4
- log2 vehicle/camptothecin viability: -0.331
- viability with camptothecin: 26.7
- Call: inactive

PERP (GeneID 64065) #1
- log2 vehicle/camptothecin viability: -0.0536
- viability with camptothecin: 93.2
- Call: inactive

PERP (GeneID 64065) #2
- log2 vehicle/camptothecin viability: -0.12
- viability with camptothecin: 104
- Call: inactive

PERP (GeneID 64065) #3
- log2 vehicle/camptothecin viability: -0.138
- viability with camptothecin: 104
- Call: inactive

PERP (GeneID 64065) #4
- log2 vehicle/camptothecin viability: 0.229
- viability with camptothecin: 70.4
- Call: inactive

TRPV6 (GeneID 55503) #1
- log2 vehicle/camptothecin viability: 0.052
- viability with camptothecin: 55.9
- Call: inactive

TRPV6 (GeneID 55503) #2
- log2 vehicle/camptothecin viability: 0.0972
- viability with camptothecin: 98.3
- Call: inactive

TRPV6 (GeneID 55503) #3
- log2 vehicle/camptothecin viability: -0.612
- viability with camptothecin: 54.1
- Call: inactive

TRPV6 (GeneID 55503) #4
- log2 vehicle/camptothecin viability: -0.0502
- viability with camptothecin: 17.8
- Call: inactive

CATSPER1 (GeneID 117144) #1
- log2 vehicle/camptothecin viability: -0.149
- viability with camptothecin: 48.2
- Call: inactive

CATSPER1 (GeneID 117144) #2
- log2 vehicle/camptothecin viability: 0.225
- viability with camptothecin: 18.8
- Call: inactive

CATSPER1 (GeneID 117144) #3
- log2 vehicle/camptothecin viability: -0.161
- viability with camptothecin: 72.3
- Call: inactive

CATSPER1 (GeneID 117144) #4
- log2 vehicle/camptothecin viability: -0.86
- viability with camptothecin: 49
- Call: inactive

KCNE5 (GeneID 23630) #1
- log2 vehicle/camptothecin viability: 0.0726
- viability with camptothecin: 62.4
- Call: inactive

KCNE5 (GeneID 23630) #2
- log2 vehicle/camptothecin viability: -0.348
- viability with camptothecin: 109
- Call: inactive

KCNE5 (GeneID 23630) #3
- log2 vehicle/camptothecin viability: -0.0936
- viability with camptothecin: 101
- Call: inactive

KCNE5 (GeneID 23630) #4
- log2 vehicle/camptothecin viability: 0.186
- viability with camptothecin: 89.5
- Call: inactive

JAK2 (GeneID 3717) #1
- log2 vehicle/camptothecin viability: -0.368
- viability with camptothecin: 97.6
- Call: inactive

JAK2 (GeneID 3717) #2
- log2 vehicle/camptothecin viability: -0.483
- viability with camptothecin: 112
- Call: inactive

JAK2 (GeneID 3717) #3
- log2 vehicle/camptothecin viability: 0.898
- viability with camptothecin: 31
- Call: inactive

JAK2 (GeneID 3717) #4
- log2 vehicle/camptothecin viability: 0.151
- viability with camptothecin: 67.5
- Call: inactive

Entries above whose gene name starts with J or j (4):
JAK2 (GeneID 3717) #1
- log2 vehicle/camptothecin viability: -0.368
- viability with camptothecin: 97.6
- Call: inactive

JAK2 (GeneID 3717) #2
- log2 vehicle/camptothecin viability: -0.483
- viability with camptothecin: 112
- Call: inactive

JAK2 (GeneID 3717) #3
- log2 vehicle/camptothecin viability: 0.898
- viability with camptothecin: 31
- Call: inactive

JAK2 (GeneID 3717) #4
- log2 vehicle/camptothecin viability: 0.151
- viability with camptothecin: 67.5
- Call: inactive

The listing continues:
SMC2 (GeneID 10592) #1
- log2 vehicle/camptothecin viability: -0.167
- viability with camptothecin: 95.1
- Call: inactive

SMC2 (GeneID 10592) #2
- log2 vehicle/camptothecin viability: -0.11
- viability with camptothecin: 103
- Call: inactive

SMC2 (GeneID 10592) #3
- log2 vehicle/camptothecin viability: -0.027
- viability with camptothecin: 72.5
- Call: inactive

SMC2 (GeneID 10592) #4
- log2 vehicle/camptothecin viability: -0.383
- viability with camptothecin: 46.5
- Call: inactive

JOSD1 (GeneID 9929) #1
- log2 vehicle/camptothecin viability: -0.0189
- viability with camptothecin: 83.7
- Call: inactive

JOSD1 (GeneID 9929) #2
- log2 vehicle/camptothecin viability: 0.168
- viability with camptothecin: 75.5
- Call: inactive

JOSD1 (GeneID 9929) #3
- log2 vehicle/camptothecin viability: -0.431
- viability with camptothecin: 75.2
- Call: inactive

JOSD1 (GeneID 9929) #4
- log2 vehicle/camptothecin viability: 0.195
- viability with camptothecin: 59.7
- Call: inactive

GADD45A (GeneID 1647) #1
- log2 vehicle/camptothecin viability: -0.326
- viability with camptothecin: 119
- Call: inactive

GADD45A (GeneID 1647) #2
- log2 vehicle/camptothecin viability: -0.112
- viability with camptothecin: 98
- Call: inactive

GADD45A (GeneID 1647) #3
- log2 vehicle/camptothecin viability: 0.129
- viability with camptothecin: 47.5
- Call: inactive

GADD45A (GeneID 1647) #4
- log2 vehicle/camptothecin viability: -0.296
- viability with camptothecin: 97.2
- Call: inactive

CD8A (GeneID 925) #1
- log2 vehicle/camptothecin viability: -0.197
- viability with camptothecin: 106
- Call: inactive

CD8A (GeneID 925) #2
- log2 vehicle/camptothecin viability: 0.244
- viability with camptothecin: 87.8
- Call: inactive

CD8A (GeneID 925) #3
- log2 vehicle/camptothecin viability: 0.207
- viability with camptothecin: 79.9
- Call: inactive

CD8A (GeneID 925) #4
- log2 vehicle/camptothecin viability: 0.0606
- viability with camptothecin: 81.3
- Call: inactive

SPC24 (GeneID 147841) #1
- log2 vehicle/camptothecin viability: -0.87
- viability with camptothecin: 69.1
- Call: inactive

SPC24 (GeneID 147841) #2
- log2 vehicle/camptothecin viability: -0.507
- viability with camptothecin: 91.6
- Call: inactive

SPC24 (GeneID 147841) #3
- log2 vehicle/camptothecin viability: -0.352
- viability with camptothecin: 83.5
- Call: inactive

SPC24 (GeneID 147841) #4
- log2 vehicle/camptothecin viability: 0.337
- viability with camptothecin: 58.4
- Call: inactive
